These results are taken from publication PMC3546041.

The target of assay [1] is GFP-fused MBD2 COOH-terminus (HEK 293) (mouse). Put plainly: condition: only complexes washed with buffer supplemented with 300 mM NaCl; co-IP; HEK293-EBNA cells co-expressing GFP- and RFP-tagged domains; lysis and GBP-bound beads in 200 mM NaCl; complexes washed with buffer containing 300 mM NaCl; Western blot with anti RFP. Background: A western blot detects proteins with antibodies after separation by electrophoresis.

Assay [2] shares this target. Put plainly: co-IP; HEK293-EBNA cells co-expressing GFP- and RFP-tagged domains; lysis, GBP-bound beads and washes in buffer with 200 mM NaCl; Western blot with anti RFP.

These are yes or no findings as the source states them, for the method shown. In cells and extracts the contact can be indirect. For some assays here: Binding calls can cover weak binding; strength is not graded here. Tags and fused reporters may be left off the sequences shown.

B1: RFP-fused MBD2 NTD (HEK 293) (domain or fragment, UniProt Q9Z2E1 1-152)
chain: MRAHPGGGRCCPEQEEGESAAGGSGAGGDSAIEQGGQGSALAPSPVSGVRREGARGGGRGRGRWKQAARGGGVCGRGRGRGRGRGRGRGRGRGRGRPQSGGSGLGGDGGGGAGGCGGGSGGGVAPRRDPVPFPSGSSGPGPRGPRATESGKR
Regarding B1, the binding entry is “no binding” in assay [1] and “binds” in assay [2].
